# Test results from the supplement of paper PMC8728848.
# This is one part of the list.
# B1: Protectin (Homo sapiens), P13987 (protein)
# chain: MGIQGGSVLFGLLLVLAVFCHSGHSLQCYNCPNPTADCKTAVNCSSDFDACLITKAGLQVYNKCWKFEHCNFNDVTTRLRENELTYYCCKKDLCNFNEQLENGGTSLSEKTVLLLVTPFLAAAWSLHP
# Legend:
# Experiment in all cases: glycan array binding signal (z-score within array); higher = stronger binding
# Details in all cases: glycan notation: IUPAC condensed, linker removed
# [1] = biological target: Fuc(a1-2)[GalNAc(a1-3)]Gal(b1-4)Glc
# Outline: (§1)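 Negative Z-scores can be read as non-binding. The Z-score is calculated within each array and then averaged across arrays of one protein sequence at different concentrations or buffers and across linkers. Arrays, 3228 in all, were curated from the Consortium for Functional Glycomics database and kept only where the protein sequence was available.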
# [2] = biological target: Fuc(a1-2)[GalNAc(a1-3)]Gal(b1-4)GlcNAc
# Outline: as §1
# [3] = biological target: Fuc(a1-2)[GalNAc(a1-3)]Gal(b1-4)GlcNAc(b1-2)Man(a1-3)[Fuc(a1-2)[GalNAc(a1-3)]Gal(b1-4)GlcNAc(b1-2)Man(a1-6)]Man(b1-4)GlcNAc(b1-4)GlcNAc
# Outline: as §1
# [4] = biological target: Fuc(a1-2)[GalNAc(a1-3)]Gal(b1-4)GlcNAc(b1-2)Man(a1-3)[Fuc(a1-2)[GalNAc(a1-3)]Gal(b1-4)GlcNAc(b1-2)Man(a1-6)]Man(b1-4)GlcNAc(b1-4)[Fuc(a1-6)]GlcNAc
# Outline: as §1
# [5] = biological target: Fuc(a1-2)[GalNAc(a1-3)]Gal(b1-4)GlcNAc(b1-3)Gal(b1-4)GlcNAc
# Outline: as §1
# [6] = biological target: Fuc(a1-2)[GalNAc(a1-3)]Gal(b1-4)GlcNAc(b1-3)Gal(b1-4)GlcNAc(b1-3)Gal(b1-4)GlcNAc
# Outline: as §1
# [7] = biological target: Fuc(a1-2)[GalNAc(a1-3)]Gal(b1-4)GlcNAc(b1-3)GalNAc
# Outline: as §1
# [8] = biological target: Fuc(a1-2)[GalNAc(a1-3)]Gal(b1-4)[Fuc(a1-3)]GlcNAc
# Outline: as §1
# [9] = biological target: Fuc(a1-2)[GalNAc(a1-3)]Gal(b1-4)[Fuc(a1-3)]GlcNAc(b1-3)GalNAc
# Outline: as §1
# [10] = biological target: Fuc(a1-2)[GalNAc(a1-4)]Gal(b1-4)GlcNAc
# Outline: as §1
# [11] = biological target: Fuc(a1-2)[GalNAc(b1-3)]Gal
# Outline: as §1
# [12] = biological target: Fuc(a1-3)GlcNAc
# Outline: as §1
# [13] = biological target: Fuc(a1-3)[Gal(b1-4)]Glc6S
# Outline: as §1
# [14] = biological target: Fuc(a1-3)[Gal(b1-4)]GlcNAc
# Outline: as §1
# [15] = biological target: Fuc(a1-3)[Gal(b1-4)]GlcNAc(b1-2)Man(a1-3)[Fuc(a1-3)[Gal(b1-4)]GlcNAc(b1-2)Man(a1-6)]Man(b1-4)GlcNAc(b1-4)GlcNAc
# Outline: as §1
# [16] = biological target: Fuc(a1-3)[Gal(b1-4)]GlcNAc(b1-2)Man(a1-3)[Fuc(a1-3)[Gal(b1-4)]GlcNAc(b1-2)Man(a1-6)]Man(b1-4)GlcNAc(b1-4)[Fuc(a1-6)]GlcNAc
# Outline: as §1
# [17] = biological target: Fuc(a1-3)[Gal(b1-4)]GlcNAc(b1-3)Gal(b1-3)[Fuc(a1-4)]GlcNAc
# Outline: as §1
# [18] = biological target: Fuc(a1-3)[Gal(b1-4)]GlcNAc(b1-3)GalNAc
# Outline: as §1
# [19] = biological target: Fuc(a1-3)[Gal(b1-4)]GlcNAc(b1-4)Gal(b1-4)[Fuc(a1-3)]GlcNAc
# Outline: as §1
# [20] = biological target: Fuc(a1-3)[Gal(b1-4)]GlcNAc(b1-4)Gal(b1-4)[Fuc(a1-3)]GlcNAc(b1-4)Gal(b1-4)[Fuc(a1-3)]GlcNAc
# Outline: as §1
# [21] = biological target: Fuc(a1-3)[Gal(b1-4)]GlcNAc(b1-6)GalNAc
# Outline: as §1
# [22] = biological target: Fuc(a1-3)[Gal(b1-4)]GlcNAc(b1-6)[Gal(b1-3)GlcNAc(b1-3)]Gal(b1-4)Glc
# Outline: as §1
# [23] = biological target: Fuc(a1-3)[Gal(b1-4)]GlcNAc(b1-6)[Neu5Ac(a2-3)Gal(b1-3)]GalNAc
# Outline: as §1
# [24] = biological target: Fuc(a1-3)[Gal(b1-4)]GlcNAc6S
# Outline: as §1
# [25] = biological target: Fuc(a1-3)[Gal3S(b1-4)]GlcNAc
# Outline: as §1
# [26] = biological target: Fuc(a1-3)[Gal3S(b1-4)]GlcNAc6S
# Outline: as §1
# [27] = biological target: Fuc(a1-3)[GalNAc(b1-4)]GlcNAc
# Outline: as §1
# [28] = biological target: Fuc(a1-4)GlcNAc
# Outline: as §1
# [29] = biological target: Fuc(b1-3)GlcNAc
# Outline: as §1
# [30] = biological target: Gal(a1-2)Gal
# Outline: as §1
binder,measurement,setting,value
B1,glycan array binding signal (z-score),[1],-0.168
same,glycan array binding signal (z-score),[2],-0.791
same,glycan array binding signal (z-score),[3],-0.073
same,glycan array binding signal (z-score),[4],-0.349
same,glycan array binding signal (z-score),[5],-0.559
same,glycan array binding signal (z-score),[6],0.045
same,glycan array binding signal (z-score),[7],-0.605
same,glycan array binding signal (z-score),[8],1.38
same,glycan array binding signal (z-score),[9],0.597
same,glycan array binding signal (z-score),[10],-0.684
same,glycan array binding signal (z-score),[11],0.907
same,glycan array binding signal (z-score),[12],-0.062
same,glycan array binding signal (z-score),[13],0.245
same,glycan array binding signal (z-score),[14],0.55
same,glycan array binding signal (z-score),[15],-1.09
same,glycan array binding signal (z-score),[16],1.27
same,glycan array binding signal (z-score),[17],0.128
same,glycan array binding signal (z-score),[18],1.44
same,glycan array binding signal (z-score),[19],0.549
same,glycan array binding signal (z-score),[20],-1.75
same,glycan array binding signal (z-score),[21],2.63
same,glycan array binding signal (z-score),[22],-0.354
same,glycan array binding signal (z-score),[23],2.01
same,glycan array binding signal (z-score),[24],-0.455
same,glycan array binding signal (z-score),[25],1.22
same,glycan array binding signal (z-score),[26],0.703
same,glycan array binding signal (z-score),[27],0.825
same,glycan array binding signal (z-score),[28],1.02
same,glycan array binding signal (z-score),[29],0.309
same,glycan array binding signal (z-score),[30],-0.934

# Already shown: an excerpt of the list.
binder,measurement,setting,value
B1,glycan array binding signal (z-score),[2],-0.791
same,glycan array binding signal (z-score),[3],-0.073
